{"source": "PubChem BioAssay AID1259254 | NCATS, 2017", "test": "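Gene knock-downs that lead to re-replication, shown by excess G2 DNA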 (primary screen)", "cell system": "human HCT116 colorectal cancer cells", "knock-down reagent": "single siRNA against human genes", "duration": "3 days", "detection": "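Nuclei stained with Hoechst and imaged; cell-cycle phase assigned by DNA content; G2 share scaled per plate, non-targeting siRNA 0%, GMNN siRNA 100%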", "direction": "G2 robust z-score: higher = more G2 cells, more excess DNA replication", "call rule": "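Active siRNAs have a G2 robust z of 5 or more median absolute deviations over the median, which in these data means about 38% or higher of GMNN control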", "note": "In all, the deposit lists about 59,000 reagents; shown is a random part of them. Over the whole deposit, about 1,550 (2.6%) were called active. 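G2 share is only a proxy for re-replication; each gene was hit by three separate siRNAs, and active genes were retested.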 A number with no mark means an inactive call. The numbers tell different reagents against one gene apart. Not all columns of the deposit are shown. Not stated in the record: the amount of reagent."}
{"Target gene": "CCT2", "reagent no.": 1, "G2 robust z-score": 0.837}
{"Target gene": "CCT2", "reagent no.": 2, "G2 robust z-score": 4.31}
{"Target gene": "CCT2", "reagent no.": 3, "G2 robust z-score": 1.1}
{"Target gene": "RBM33", "reagent no.": 1, "G2 robust z-score": -0.595}
{"Target gene": "RBM33", "reagent no.": 2, "G2 robust z-score": -0.326}
{"Target gene": "RBM33", "reagent no.": 3, "G2 robust z-score": 1.61}
{"Target gene": "IGBP1", "reagent no.": 1, "G2 robust z-score": 0.689}
{"Target gene": "IGBP1", "reagent no.": 2, "G2 robust z-score": 0.531}
{"Target gene": "IGBP1", "reagent no.": 3, "G2 robust z-score": -0.879}
{"Target gene": "RFX5", "reagent no.": 1, "G2 robust z-score": -0.97}
{"Target gene": "RFX5", "reagent no.": 2, "G2 robust z-score": 1.97}
{"Target gene": "RFX5", "reagent no.": 3, "G2 robust z-score": -0.389}
{"Target gene": "ESYT3", "reagent no.": 1, "G2 robust z-score": 4.53}
{"Target gene": "ESYT3", "reagent no.": 2, "G2 robust z-score": 0.875}
{"Target gene": "ESYT3", "reagent no.": 3, "G2 robust z-score": 1.46}
{"Target gene": "PNMA6E", "reagent no.": 1, "G2 robust z-score": -0.0613}
{"Target gene": "PNMA6E", "reagent no.": 2, "G2 robust z-score": 0.233}
{"Target gene": "PNMA6E", "reagent no.": 3, "G2 robust z-score": 0.149}
{"Target gene": "FUCA2", "reagent no.": 1, "G2 robust z-score": 1.81}
{"Target gene": "FUCA2", "reagent no.": 2, "G2 robust z-score": -0.0883}
{"Target gene": "FUCA2", "reagent no.": 3, "G2 robust z-score": -1.04}
{"Target gene": "BTNL9", "reagent no.": 1, "G2 robust z-score": -0.681}
{"Target gene": "BTNL9", "reagent no.": 2, "G2 robust z-score": 1.82}
{"Target gene": "BTNL9", "reagent no.": 3, "G2 robust z-score": -0.719}

2 entries from above, sorted by “G2 robust z-score”, ascending.
{"Target gene": "PNMA6E", "reagent no.": 1, "G2 robust z-score": -0.0613}
{"Target gene": "ESYT3", "reagent no.": 3, "G2 robust z-score": 1.46}
